Measurements taken from patent US20170015649A1, “N-Thio-anthranilamid compounds and their use as pesticides” (BASF SE, priority 2005, published 2017).
Some entries share one result that the patent states for a list of compounds. For some assays here: For at least one compound, name, drawing or mass did not settle the structure.

Experiments:
[1] = test system: Tobacco Budworm (Heliothis virescens); conditions: 2500 ppm; eggs sprayed with 10 μl test solution; 6 days
[2] = test system: Southern Armyworm (Spodoptera eridania), 2nd Instar Larvae; assay type: in vivo; conditions: 300 ppm; leaf dipped; at 5 days
Protocol: The active compounds were formulated for testing the activity against insects and arachnids as a 10.000 ppm solution in a mixture of 35% acetone and water, which was diluted with water, if needed.
A Sieva lima bean leaf was dipped in the test solution and allowed to dry. The leaf was then placed in a petri dish containing a filter paper on the bottom and ten 2nd instar caterpillars. At 5 days, observations are made of mortality and reduced feeding.

[3] = test system: Boll Weevil (Anthonomus grandis); assay: Activity against boll weevil, eggs in microtiterplates; assay type: in vivo; conditions: 2500 ppm; eggs sprayed with 20 μl test solution; 3 to 5 days
Protocol: 10 to 15 eggs were placed into microtiterplates filled with 2% agar-agar in water and 300 ppm formaline. […] Mortality was assessed on the basis of the remaining unhatched eggs or larvae on the agar surface and/or quantity and depth of the digging channels caused by the hatched larvae. Tests were replicated 2 times.

[4] = test system: Vetch Aphid (Megoura viciae); assay: Activity against vetch aphid, bean leaf disks; assay type: in vivo; conditions: 2500 ppm; leaf disks sprayed with 2.5 μl; 6 days; compared to 0% mortality of untreated controls
Protocol: Bean leaf disks were placed into microtiterplates filled with 0.8% agar-agar and 2.5 ppm OPUS™. The leaf disks were sprayed with 2.5 μl of the test solution and 5 to 8 adult aphids were placed into the microtiterplates which were then closed and kept at 22-24° C. and 35-45% under fluorescent light for 6 days. Mortality was assessed on the basis of vital, reproduced aphids. Tests were replicated 2 times.

[5] = test system: Mediterranean Fruitfly (Ceratitis capitata); assay: Activity against Mediterranean fruitfly, eggs in microtiterplates; assay type: in vivo; conditions: 2500 ppm; eggs sprayed with 5 μl test solution; 6 days
Protocol: 50 to 80 eggs were placed into microtiterplates filled with 0.5% agar-agar and 14% diet in water. […] Mortality was assessed on the basis of the agility of the hatched larvae. Tests were replicated 2 times.

[6] = test system: Diamond Back Moth (Plutella xylostella); assay: Activity against diamond back moth, cabbage leaf disk dip; assay type: in vivo; conditions: 300 ppm; leaf disk dipped; third instar larvae; after 72 h
Protocol: The active compounds were formulated in 50:50 acetone:water and 0.1% (vol/vol) Alkamuls EL 620 surfactant. A 6 cm leaf disk of cabbage leaves was dipped in the test solution for 3 seconds and allowed to air dry in a Petri plate lined with moist filter paper. The leaf disk was inoculated with 10 third instar larvae and kept at 25-27° C. and 50-60% humidity for 3 days. Mortality was assessed after 72 h of treatment.

[7] = test system: Yellowfever Mosquito (Aedes aegyptii) Larvae; assay: Activity against mosquito larvae via water treatment; assay type: in vivo; conditions: 10 ppm, 4th-instar larvae
Protocol: 11. Activity Against Yellowfever Mosquito (Aedes aegyptii), House Mosquito (Culex quinquefasciatus) and Malaria Mosquito (Anopheles albimanus) Larvae Via Water Treatment
Well plates were used as test arenas. The active ingredient was dissolved in acetone and diluted with water to obtain the concentrations needed. The final solutions containing appr. 1% acetone were placed into each well. Approximately 10 mosquito larvae (4th-instars) in 1 ml water were added to each well. Larvae were fed one drop of liver powder each day. The dishes were covered and maintained at 22° C. Mortality was recorded daily and dead larvae and live or dead pupae were removed daily. At the end of the test remaining live larvae were recorded and percent mortality was calculated.

[8] = test system: Yellowfever Mosquito (Aedes aegyptii); assay: Activity via glass contact; assay type: in vivo; conditions: 10 ppm
Description: 10. Activity Against Argentine Ant (Linepithema humile), Harvester Ant (Pogonomyrmex Californicus), Acrobat Ant (Crematogaster Spp.), Carpenter Ant (Camponotus floridanus), Fire Ant (Solenopsis invicta), House Fly (Musca domestica), Stable Fly (Stomoxys calcitrans), Flesh Fly (Sarcophaga sp.), Yellowfever Mosquito (Aedes aegyptii), House Mosquito (Culex quinquefasciatus), Malaria Mosquito (Anopheles albimanus), German Cockroach (Blattella Germanica), Cat Flea (Ctenocephalides felis), and Brown Dog Tick (Rhipicephalus sanguineus) Via Glass Contact
Glass vials were treated with 0.5 ml of a solution of active ingredient in acetone and allowed to dry. Insects or ticks were placed into each vial together with some food and moisture supply.

Row | SMILES | mortality [1] | mortality [2] | mortality [3] | mortality [4] | mortality [5] | mortality [6] | mortality of yellowfever mosquito [7] | mortality of yellowfever mosquito [8]
1 | Cc1cc(Cl)cc(C(=O)NS(=O)(=O)N(C(C)C)C(C)C)c1NC(=O)c1cc(Br)nn1-c1ncccc1Cl [I.1-3] | over 75% | over 75% | over 75% |  |  |  |  | 
2 | Cc1cc(Cl)cc(C(=O)NS(=O)(=O)N(C)Cc2ccccc2)c1NC(=O)c1cc(Br)nn1-c1ncccc1Cl [I.1-11] | over 75% | over 75% | over 75% |  |  |  |  | 
3 | Cc1cc(Cl)cc(C(=O)NS(=O)(=O)N(C)c2ccccc2)c1NC(=O)c1cc(Br)nn1-c1ncccc1Cl [I.1-12] | over 75% | over 75% |  | over 75% | over 75% |  |  | 
4 | CCCN(C(C)C)S(=O)(=O)NC(=O)c1cc(Cl)cc(C)c1NC(=O)c1cc(Br)nn1-c1ncccc1Cl [I.1-15] | over 75% | over 75% | over 75% |  |  | over 75% |  | 
5 | CCN(C(C)C)S(=O)(=O)NC(=O)c1cccc(C)c1NC(=O)c1cc(Br)nn1-c1ncccc1Cl [I.1-19] | over 75% | over 75% |  | over 75% |  | over 75% |  | 
6 | CCCN(C(C)C)S(=O)(=O)NC(=O)c1cccc(C)c1NC(=O)c1cc(Br)nn1-c1ncccc1Cl [I.1-21] | over 75% | over 75% |  |  |  | over 75% |  | 
7 | Cc1cccc(C(=O)NS(=O)(=O)N(C)Cc2ccccc2)c1NC(=O)c1cc(Br)nn1-c1ncccc1Cl [I.1-24] | over 75% | over 75% |  |  |  | over 75% |  | 
8 | Cc1cccc(C(=O)NS(=O)(=O)N(C)CC(C)C)c1NC(=O)c1cc(Br)nn1-c1ncccc1Cl [I.1-28] | over 75% | over 75% |  |  |  | over 75% |  | 
9 | CCCN(C)S(=O)(=O)NC(=O)c1cccc(C)c1NC(=O)c1cc(Br)nn1-c1ncccc1Cl [I.1-31] | over 75% | over 75% |  |  |  | over 75% |  | 
10 | Cc1cccc(C(=O)NS(=O)(=O)N(C)c2ccccc2)c1NC(=O)c1cc(Br)nn1-c1ncccc1Cl [I.1-32] | over 75% | over 75% | over 75% | over 75% |  | over 75% |  | 
11 | C=CCN(C(C)C)S(=O)(=O)NC(=O)c1cc(Cl)cc(C)c1NC(=O)c1cc(C(F)(F)F)nn1-c1ncccc1Cl [I.1-35] | over 75% | over 75% | over 75% |  |  |  |  | 
12 | CCN(C(C)C)S(=O)(=O)NC(=O)c1cc(Cl)cc(C)c1NC(=O)c1cc(C(F)(F)F)nn1-c1ncccc1Cl [I.1-38] | over 75% | over 75% |  |  | over 75% |  | over 70% | 
13 | C=CCN(C)S(=O)(=O)NC(=O)c1cc(Cl)cc(C)c1NC(=O)c1cc(C(F)(F)F)nn1-c1ncccc1Cl [I.1-43] | over 75% | over 75% |  |  | over 75% |  |  | 
14 | Cc1cc(Cl)cc(C(=O)NS(=O)(=O)N(C)C2CCCCC2)c1NC(=O)c1cc(C(F)(F)F)nn1-c1ncccc1Cl [I.1-44] | over 75% | over 75% |  |  | over 75% |  |  | 
15 | Cc1cc(Cl)cc(C(=O)NS(=O)(=O)N(C)Cc2ccccc2)c1NC(=O)c1cc(C(F)(F)F)nn1-c1ncccc1Cl [I.1-48] | over 75% |  | over 75% |  |  |  |  | 
16 | Cc1cc(Cl)cc(C(=O)NS(=O)(=O)N(C)c2ccccc2)c1NC(=O)c1cc(C(F)(F)F)nn1-c1ncccc1Cl [I.1-49] | over 75% | over 75% |  | over 75% | over 75% |  | over 70% | 
17 | CCCN(CCOC)S(=O)(=O)NC(=O)c1cccc(C)c1NC(=O)c1cc(C(F)(F)F)nn1-c1ncccc1Cl [I.1-50] |  |  |  | over 75% |  |  |  | 
18 | C=C(Cl)CN(CCC)S(=O)(=O)NC(=O)c1cc(Cl)cc(C)c1NC(=O)c1cc(Br)nn1-c1ncccc1Cl [I.1-69] | over 75% | over 75% | over 75% |  |  |  | over 70% | 
19 | Cc1cc(Cl)cc(C(=O)N=S(C(C)C)C(C)C)c1NC(=O)c1cc(Br)nn1-c1ncccc1Cl [I.3-5] |  |  |  |  |  |  |  | over 70%
20 | Cc1cc(Cl)cc(C(=O)N=S(C(C)C)C(C)C)c1NC(=O)c1cc(C(F)(F)F)nn1-c1ncccc1Cl [I.3-6] |  |  |  |  |  |  |  | over 70%
